{"sequences": {"note": "By UniProt entry, the sequences of proteins in these tests, tags left out. Where a name states a change or a piece, a line headed by the entry shows the natural chain unless it says otherwise. Residues count along the entry.", "UniProt P48061": "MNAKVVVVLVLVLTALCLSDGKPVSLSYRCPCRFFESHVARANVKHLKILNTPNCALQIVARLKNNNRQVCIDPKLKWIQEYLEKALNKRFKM", "UniProt P40224, 22-89": "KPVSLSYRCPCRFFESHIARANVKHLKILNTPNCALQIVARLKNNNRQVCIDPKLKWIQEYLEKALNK"}, "source": "patent US20110223127", "key": {"[1]": {"biological_target": "SDF-1alpha (CXCL12) (Homo sapiens) (UniProt P48061)", "assay": "SPR", "settings": "L-RNA, purified recombinant protein, mirror-image nucleic acid"}, "[2]": {"biological_target": "SDF-1alpha (CXCL12) (Mus musculus) (UniProt P40224)", "assay": "activity in cells", "settings": "L-RNA, purified recombinant protein, mirror-image nucleic acid, dose not given here"}, "[3]": {"biological_target": "SDF-1alpha (CXCL12) (Homo sapiens) (UniProt P48061)", "assay": "activity in cells", "settings": "L-RNA, mirror-image nucleic acid"}, "VEGF (VEGF165)": {"tested_on": "VEGF (VEGF165)", "assay": "SPR", "settings": "L-RNA, 5'-40 kDa PEG; no VEGF binding at the concentrations used; purified recombinant protein; mirror-image nucleic acid; variant of 193-G2-001 Spiegelmer"}, "[4]": {"biological_target": "SDF-1 (murine CXCL12) (Mus musculus) (UniProt P40224)", "assay": "activity in cells", "settings": "L-RNA; 5'-30 kDa PEG; in vivo mouse HSC/HPC mobilization, 300 CD117+Ly-6A/E+ cells per uL vs 100 for vehicle; indirect; protein in cells; synthetic backbone; mirror-image nucleic acid; dose not given here"}, "[5]": {"settings": "5'-40 kDa PEG, inhibits Jurkat chemotaxis to 0.3 nM human SDF-1, synthetic backbone"}, "[6]": {"settings": "5'-40 kDa PEG, low nanomolar range, variant of 197-B2 Spiegelmer"}}, "note": "For at least one entry, the source does not settle the construct or the ends of the probe. For part of these data: Negatives hold for the conditions tested.", "data": [{"sequence": "AGCGUGGUGUGAUCUAGAUGUAGUGGCUGAUCCUAGUCAGGUACGCU [193-C2-001 Spiegelmer]", "values": [{"measurement": "binding result", "setting": "[1]", "result": "binds"}]}, {"sequence": "CGCAUGGACUGAUCCUAGUCGGUUAUGUAGAUCUAGUGUGGUGCG [revNOX-A12-JE40]", "values": [{"measurement": "functional effect of the aptamer", "setting": "[2]; 5'-40 kDa PEG, stated no binding activity to SDF-1, no HSC/HPC mobilization in mice, variant of 193-G2-012-5'-PEG (NOX-A12-JE40)", "result": "not active"}]}, {"sequence": "CGCCGGGGUUAGGGCUAGAAGUCGGCCGGCG [197-B2-006-31b-5'-PEG]", "values": [{"measurement": "functional effect of the aptamer", "setting": "[3]; [5]", "result": "active"}, {"measurement": "binding result", "setting": "[1]; [6]", "result": "binds"}]}, {"sequence": "CGGGAGGUUAGGGCUAGAAGUCGGUCCCG [191-D5-007-5'-PEG]", "values": [{"measurement": "functional effect of the aptamer", "setting": "[2]; 5'-40 kDa PEG, inhibits murine SDF-1 chemotaxis with same potency as human, variant of 191-D5-007 Spiegelmer", "result": "active"}, {"measurement": "functional effect of the aptamer", "setting": "[3]; [5]", "result": "active"}, {"measurement": "binding result", "setting": "[1]; 5'-40 kDa PEG, low nanomolar range, variant of 191-D5-007 Spiegelmer", "result": "binds"}]}, {"sequence": "GCCGGGGUUAGGGCUAGAAGUCGGCCGGC [197-B2-006-5'-PEG]", "values": [{"measurement": "functional effect of the aptamer", "setting": "[3]; [5]", "result": "active"}, {"measurement": "binding result", "setting": "[1]; [6]", "result": "binds"}]}, {"sequence": "GCGUGAAAGCAACAUGUCAAUGAAAGGUAGCCGCGC [192-A10-008 Spiegelmer]", "values": [{"measurement": "functional effect of the aptamer", "setting": "[3]; inhibits Jurkat chemotaxis to 0.3 nM human SDF-1, 37C, synthetic backbone", "result": "active"}]}, {"sequence": "GCGUGAAAGCAACAUGUCAAUGAAAGGUAGCCGCGC [192-A10-008-5'-PEG]", "values": [{"measurement": "functional effect of the aptamer", "setting": "[3]; [5]", "result": "active"}]}, {"sequence": "GCGUGGUGUGAUCUAGAUGUAUUGGCUGAUCCUAGUCAGGUACGC [193-G2-012-5'-PEG (NOX-A12-JE40)]", "values": [{"measurement": "functional effect of the aptamer", "setting": "[3]; 5'-40 kDa PEG, inhibits Jurkat chemotaxis, also blocks SDF-1-induced aortic ring sprouting at 1 uM (p535), synthetic backbone", "result": "active"}, {"measurement": "binding result", "setting": "[1]; 5'-40 kDa PEG, low nanomolar range, variant of 193-G2-001 Spiegelmer", "result": "binds"}, {"measurement": "binding result", "setting": "VEGF (VEGF165)", "result": "no binding"}]}, {"sequence": "GCGUGGUGUGAUCUAGAUGUAUUGGCUGAUCCUAGUCAGGUACGC [NOX-A12-NO30]", "values": [{"measurement": "functional effect of the aptamer", "setting": "[4]", "result": "active"}]}, {"sequence": "GCUGUGAAAGCAACAUGUCAAUGAAAGGUAGCCGCAGC [192-A10-001 Spiegelmer]", "values": [{"measurement": "functional effect of the aptamer", "setting": "[2]; inhibits murine SDF-1 chemotaxis with same potency as human", "result": "active"}]}, {"sequence": "GCUGUGAAAGCAACAUGUCAAUGAAAGGUAGCCGCAGC [192-A10-001-5'-HES100]", "values": [{"measurement": "functional effect of the aptamer", "setting": "[3]; 5'-100 kDa HES, chemotaxis inhibition unchanged by HES, purified recombinant protein, variant of 192-A10-001 Spiegelmer, dose not given here", "result": "active"}]}, {"sequence": "GCUGUGAAAGCAACAUGUCAAUGAAAGGUAGCCGCAGC [192-A10-001-5'-HES130]", "values": [{"measurement": "functional effect of the aptamer", "setting": "[3]; 5'-130 kDa HES, chemotaxis inhibition unchanged by HES, purified recombinant protein, variant of 192-A10-001 Spiegelmer, dose not given here", "result": "active"}]}, {"sequence": "GCUGUGAAAGCAACAUGUCAAUGAAAGGUAGCCGCAGC [192-A10-001-5'-PEG30]", "values": [{"measurement": "functional effect of the aptamer", "setting": "[3]; 5'-30 kDa PEG, chemotaxis inhibition unchanged by PEG, purified recombinant protein, variant of 192-A10-001 Spiegelmer, dose not given here", "result": "active"}]}, {"sequence": "GCUGUGAAAGCAACAUGUCAAUGAAAGGUAGCCGCAGC [192-A10-001-5'-PEG40]", "values": [{"measurement": "functional effect of the aptamer", "setting": "[3]; 5'-40 kDa PEG, PEG has no influence on inhibition of chemotaxis, synthetic backbone, dose not given here", "result": "active"}]}, {"sequence": "UAAGGAAACUCGGUCUGAUGCGGUAGCGCUGUGCAGAGCU [Control Spiegelmer]", "values": [{"measurement": "functional effect of the aptamer", "setting": "[2]; no inhibition of chemotaxis to murine SDF-1", "result": "not active"}, {"measurement": "functional effect of the aptamer", "setting": "[3]; no inhibition of chemotaxis up to 1 uM, purified recombinant protein", "result": "not active"}]}, {"sequence": "UAAGGAAACUCGGUCUGAUGCGGUAGCGCUGUGCAGAGCU [PEGylated Control Spiegelmer]", "values": [{"measurement": "functional effect of the aptamer", "setting": "[3]; 5'-PEG, stated not to bind SDF-1, no block of aortic ring sprouting at 1 uM, purified recombinant protein, variant of Control Spiegelmer", "result": "not active"}]}, {"sequence": "UGAGAUAGGGGUUAGGGCUUAAAGUCGGCUGAUUCUCA [190-A3-003 Spiegelmer]", "values": [{"measurement": "binding result", "setting": "[1]", "result": "binds"}]}]}
